Measured values published in article doi:10.1101/2021.10.21.465333.
These are yes or no findings as the source states them, for the method shown. In cells and extracts the contact can be indirect. Some entries that bind do so weakly or less than the wild type.

By UniProt entry, the sequences of proteins in these tests, tags left out.
UniProt P54253: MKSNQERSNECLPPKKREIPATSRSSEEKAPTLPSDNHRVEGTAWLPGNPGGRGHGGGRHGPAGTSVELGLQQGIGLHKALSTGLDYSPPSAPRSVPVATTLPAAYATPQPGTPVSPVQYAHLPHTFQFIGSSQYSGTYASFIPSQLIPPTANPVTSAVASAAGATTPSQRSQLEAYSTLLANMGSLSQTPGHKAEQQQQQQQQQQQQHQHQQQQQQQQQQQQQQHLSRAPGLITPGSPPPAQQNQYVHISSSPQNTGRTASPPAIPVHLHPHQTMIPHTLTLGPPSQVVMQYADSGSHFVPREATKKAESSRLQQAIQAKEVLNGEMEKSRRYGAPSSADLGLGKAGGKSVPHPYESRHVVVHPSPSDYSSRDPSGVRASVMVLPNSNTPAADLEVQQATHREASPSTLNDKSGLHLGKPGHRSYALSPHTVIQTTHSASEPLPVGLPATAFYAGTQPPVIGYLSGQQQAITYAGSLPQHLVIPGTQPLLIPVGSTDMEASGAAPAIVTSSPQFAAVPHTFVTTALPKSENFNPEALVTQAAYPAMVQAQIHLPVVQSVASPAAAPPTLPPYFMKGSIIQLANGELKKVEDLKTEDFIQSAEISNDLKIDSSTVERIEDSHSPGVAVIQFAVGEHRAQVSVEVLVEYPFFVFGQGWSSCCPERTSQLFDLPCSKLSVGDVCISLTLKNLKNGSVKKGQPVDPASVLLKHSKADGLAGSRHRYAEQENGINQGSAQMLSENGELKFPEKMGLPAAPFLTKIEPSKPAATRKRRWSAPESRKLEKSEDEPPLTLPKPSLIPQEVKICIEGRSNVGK
UniProt P35222: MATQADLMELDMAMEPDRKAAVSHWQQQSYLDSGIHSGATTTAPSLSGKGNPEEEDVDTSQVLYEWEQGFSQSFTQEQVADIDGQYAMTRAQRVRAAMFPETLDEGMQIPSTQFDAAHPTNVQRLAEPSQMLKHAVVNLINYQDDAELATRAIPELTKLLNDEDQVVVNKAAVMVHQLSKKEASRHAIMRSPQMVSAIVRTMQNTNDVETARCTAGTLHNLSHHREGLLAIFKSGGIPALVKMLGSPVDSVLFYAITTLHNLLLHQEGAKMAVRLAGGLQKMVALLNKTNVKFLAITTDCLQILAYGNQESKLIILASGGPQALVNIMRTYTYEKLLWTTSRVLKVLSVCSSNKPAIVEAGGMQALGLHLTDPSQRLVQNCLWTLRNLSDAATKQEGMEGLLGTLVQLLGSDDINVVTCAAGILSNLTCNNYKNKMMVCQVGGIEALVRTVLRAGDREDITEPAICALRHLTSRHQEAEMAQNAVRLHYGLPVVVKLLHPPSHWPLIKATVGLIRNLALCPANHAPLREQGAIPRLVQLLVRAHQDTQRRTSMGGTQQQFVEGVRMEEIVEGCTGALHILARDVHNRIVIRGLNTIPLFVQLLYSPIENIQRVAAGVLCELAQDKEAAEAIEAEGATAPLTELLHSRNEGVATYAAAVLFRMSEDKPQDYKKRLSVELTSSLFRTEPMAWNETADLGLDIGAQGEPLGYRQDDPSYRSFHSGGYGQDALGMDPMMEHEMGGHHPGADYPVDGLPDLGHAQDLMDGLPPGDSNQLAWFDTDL
UniProt P36402: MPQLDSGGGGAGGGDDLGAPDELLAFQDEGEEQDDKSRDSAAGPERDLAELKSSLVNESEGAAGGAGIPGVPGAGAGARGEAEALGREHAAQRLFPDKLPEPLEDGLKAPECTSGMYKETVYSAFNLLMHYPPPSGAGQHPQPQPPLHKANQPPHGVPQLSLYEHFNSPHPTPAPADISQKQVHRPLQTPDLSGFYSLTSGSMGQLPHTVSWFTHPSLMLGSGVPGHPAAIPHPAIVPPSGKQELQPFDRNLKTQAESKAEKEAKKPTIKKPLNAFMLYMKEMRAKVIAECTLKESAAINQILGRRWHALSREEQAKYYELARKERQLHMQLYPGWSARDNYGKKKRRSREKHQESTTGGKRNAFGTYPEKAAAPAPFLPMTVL
UniProt Q9NQB0: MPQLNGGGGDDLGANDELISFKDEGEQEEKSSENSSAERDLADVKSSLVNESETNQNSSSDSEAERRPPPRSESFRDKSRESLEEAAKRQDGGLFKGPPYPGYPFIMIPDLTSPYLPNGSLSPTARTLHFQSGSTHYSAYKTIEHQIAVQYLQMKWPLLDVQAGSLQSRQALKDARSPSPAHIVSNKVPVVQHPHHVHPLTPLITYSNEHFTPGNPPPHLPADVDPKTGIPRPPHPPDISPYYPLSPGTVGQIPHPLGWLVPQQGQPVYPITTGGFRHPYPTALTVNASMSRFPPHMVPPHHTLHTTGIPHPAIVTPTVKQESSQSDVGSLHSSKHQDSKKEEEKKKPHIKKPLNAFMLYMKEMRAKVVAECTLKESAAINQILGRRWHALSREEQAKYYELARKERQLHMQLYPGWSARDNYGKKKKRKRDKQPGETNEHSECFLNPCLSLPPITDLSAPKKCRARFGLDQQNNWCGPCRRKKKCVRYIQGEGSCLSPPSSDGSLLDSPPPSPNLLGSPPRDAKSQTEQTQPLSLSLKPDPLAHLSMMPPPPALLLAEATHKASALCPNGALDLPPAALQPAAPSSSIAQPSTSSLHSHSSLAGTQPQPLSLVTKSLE
UniProt Q9UJU2: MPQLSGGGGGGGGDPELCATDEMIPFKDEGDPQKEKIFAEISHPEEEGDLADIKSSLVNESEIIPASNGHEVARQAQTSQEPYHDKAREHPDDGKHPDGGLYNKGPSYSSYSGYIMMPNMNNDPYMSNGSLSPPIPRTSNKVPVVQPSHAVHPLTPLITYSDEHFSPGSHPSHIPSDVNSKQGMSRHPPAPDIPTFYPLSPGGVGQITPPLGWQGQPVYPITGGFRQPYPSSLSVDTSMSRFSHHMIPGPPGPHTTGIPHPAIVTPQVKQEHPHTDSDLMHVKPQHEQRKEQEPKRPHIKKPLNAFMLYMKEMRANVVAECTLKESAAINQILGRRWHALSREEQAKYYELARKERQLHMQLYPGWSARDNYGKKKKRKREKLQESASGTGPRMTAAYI

Biological target: GST-ataxin-1 [30Q] (UniProt P54253)
Test: pull-down

| Molecule | binding |
| --- | --- |
| β-catenin (from UniProt P35222 1-781) | no binding |
| TCF1 (from UniProt P36402 1-384) | binds |
| TCF4 (from UniProt Q9NQB0 1-619) | binds |
| LEF1 (from UniProt Q9UJU2 1-399) | binds |
| TCF3 (protein, UniProt Q9HCS4 1-588) MPQLGGGGGGGGGGSGGGGGSSAGAAGGGDDLGANDELIPFQDEGGEEQEPSSDSASAQRDLDEVKSSLVNESENQSSSSDSEAERRPQPVRDTFQKPRDYFAEVRRPQDSAFFKGPPYPGYPFLMIPDLSSPYLSNGPLSPGGARTYLQMKWPLLDVPSSATVKDTRSPSPAHLSNKVPVVQHPHHMHPLTPLITYSNDHFSPGSPPTHLSPEIDPKTGIPRPPHPSELSPYYPLSPGAVGQIPHPLGWLVPQQGQPMYSLPPGGFRHPYPALAMNASMSSLVSSRFSPHMVAPAHPGLPTSGIPHPAIVSPIVKQEPAPPSLSPAVSVKSPVTVKKEEEKKPHVKKPLNAFMLYMKEMRAKVVAECTLKESAAINQILGRKWHNLSREEQAKYYELARKERQLHSQLYPTWSARDNYGKKKKRKREKQLSQTQSQQQVQEAEGALASKSKKPCVQYLPPEKPCDSPASSHGSMLDSPATPSAALASPAAPAATHSEQAQPLSLTTKPETRAQLALHSAAFLSAKAAASSSGQMGSQPPLLSRPLPLGSMPTALLASPPSFPATLHAHQALPVLQAQPLSLVTKSAH | binds |
